PubChem BioAssay AID1259254 | NCATS | 2017

Test: 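Gene knock-downs that lead to re-replication, shown by excess G2 DNA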 (primary screen)
Cell system: human HCT116 colorectal cancer cells
Knock-down reagent: single siRNA against human genes
Timing: 3 days
Detection: 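Imaged Hoechst DNA stain sorts each cell into a cycle phase by DNA amount; per plate, G2 fraction set to 0% for non-targeting and 100% for GMNN siRNA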
Reading the numbers: G2 robust z-score and G2 cells, % of GMNN control: higher = more G2 cells, more excess DNA replication; raw share of cells in G2: higher = larger share of cells with G2 DNA content
Hit rule: 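Active siRNAs have a G2 robust z of 5 or more median absolute deviations over the median, which in these data means about 38% or higher of GMNN control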
Here is an unselected part of about 59,000 reagents. Of all reagents, about 1,550 (2.6%) are marked active. 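G2 share is only a proxy for re-replication; each gene was hit by three separate siRNAs, and active genes were retested.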 The raw values are shown without normalisation. Unmarked entries are inactive. The numbers tell different reagents against one gene apart. The record does not give: the amount of reagent.

gene symbol | reagent | G2 robust z-score | G2 cells, % of GMNN control | raw share of cells in G2 (%)
TTLL11 (GeneID 158135) | 1 | -1.14 | -5.04 | 3.55
TTLL11 (GeneID 158135) | 2 | 0.244 | 4.68 | 6.42
TTLL11 (GeneID 158135) | 3 | -0.217 | 1.44 | 5.31
TAX1BP3 (GeneID 30851) | 1 | 4.55 | 35 | 17.2
TAX1BP3 (GeneID 30851) | 2 | 0.903 | 9.32 | 8.07
TAX1BP3 (GeneID 30851) | 3 | 1.14 | 11 | 6.71
CBR1 (GeneID 873) | 1 | 0.981 | 9.87 | 8.59
CBR1 (GeneID 873) | 2 | 3.52 | 27.8 | 14.3
CBR1 (GeneID 873) | 3 | -0.546 | -0.876 | 4.42
TNFAIP8 (GeneID 25816) | 1 | 1.61 | 14.3 | 9.79
TNFAIP8 (GeneID 25816) | 2 | 0.582 | 7.06 | 7
TNFAIP8 (GeneID 25816) | 3 | 0.119 | 3.8 | 4.63
ZNF91 (GeneID 7644) | 1 | 0.928 | 9.5 | 6.69
ZNF91 (GeneID 7644) | 2 | -0.0765 | 2.43 | 7.07
ZNF91 (GeneID 7644) | 3 | -0.531 | -0.771 | 3.02
ZNF382 (GeneID 84911) | 1 | 1.88 | 16.2 | 8.5
ZNF382 (GeneID 84911) | 2 | 4.76 | 36.5 | 22.4
ZNF382 (GeneID 84911) | 3 | -0.793 | -2.61 | 2.81
ADRA1B (GeneID 147) | 1 | 4.29 | 33.1 | 17.7
ADRA1B (GeneID 147) | 2 | 0.942 | 9.59 | 6.21
ADRA1B (GeneID 147) | 3 | -0.557 | -0.948 | 4.19
AKAP5 (GeneID 9495) | 1 | -0.341 | 0.571 | 5.42
AKAP5 (GeneID 9495) | 2 | 0.547 | 6.82 | 7.52
AKAP5 (GeneID 9495) | 3 | 0.362 | 5.51 | 5.08
P2RX1 (GeneID 5023) | 1 | -0.753 | -2.33 | 4.44
P2RX1 (GeneID 5023) | 2 | -0.137 | 2.01 | 5.46
P2RX1 (GeneID 5023) | 3 | -0.686 | -1.86 | 3.65
CDKN1B (GeneID 1027) | 1 | -0.422 | -0.00306 | 4.96
CDKN1B (GeneID 1027) | 2 | 7.07 (active) | 52.7 | 24.3
CDKN1B (GeneID 1027) | 3 | -0.877 | -3.2 | 2.99
SNX19P3 (GeneID 646442) | 1 | -0.393 | 0.204 | 3.85
SNX19P3 (GeneID 646442) | 2 | 3.32 | 26.3 | 13
SNX19P3 (GeneID 646442) | 3 | -0.0718 | 2.46 | 3.83
SNX19P3 (GeneID 646442) | 4 | 0.687 | 7.8 | 6.72
SNX19P3 (GeneID 646442) | 5 | 0.157 | 4.07 | 4.74
SNX19P3 (GeneID 646442) | 6 | 0.933 | 9.53 | 6.07
SNX19P3 (GeneID 646442) | 7 | -0.904 | -3.39 | 2.5
SNX19P3 (GeneID 646442) | 8 | -0.704 | -1.99 | 2.49
SNX19P3 (GeneID 646442) | 9 | 0.377 | 5.62 | 4.83
ENPP5 (GeneID 59084) | 1 | -1.22 | -5.59 | 3.33
ENPP5 (GeneID 59084) | 2 | -0.433 | -0.0807 | 4.32
ENPP5 (GeneID 59084) | 3 | 5.24 (active) | 39.9 | 18.7
TAS2R13 (GeneID 50838) | 1 | 4.07 | 31.6 | 15.9
TAS2R13 (GeneID 50838) | 2 | 0.478 | 6.33 | 6.94
TAS2R13 (GeneID 50838) | 3 | 1.53 | 13.7 | 7.58
RPS24 (GeneID 6229) | 1 | 2.99 | 24 | 15.2
RPS24 (GeneID 6229) | 2 | 3.34 | 26.5 | 14.7
RPS24 (GeneID 6229) | 3 | 2.56 | 21 | 10.9
CA6 (GeneID 765) | 1 | 1.45 | 13.1 | 9.75
CA6 (GeneID 765) | 2 | -0.979 | -3.92 | 2.53
CA6 (GeneID 765) | 3 | 0.972 | 9.81 | 8.06
ZFPM2 (GeneID 23414) | 1 | 0.0203 | 3.11 | 4.93
ZFPM2 (GeneID 23414) | 2 | -1.39 | -6.82 | 3.63
ZFPM2 (GeneID 23414) | 3 | 1.18 | 11.3 | 7.94
ELF2P4 (GeneID 644935) | 1 | -0.375 | 0.326 | 3.76
ELF2P4 (GeneID 644935) | 2 | 0.396 | 5.76 | 5.34
ELF2P4 (GeneID 644935) | 3 | -0.631 | -1.47 | 2.72
LINC01822 (GeneID 645949) | 1 | -0.672 | -1.76 | 3.11
LINC01822 (GeneID 645949) | 2 | 0.75 | 8.24 | 6.28
LINC01822 (GeneID 645949) | 3 | -0.749 | -2.31 | 2.31
PRADC1 (GeneID 84279) | 1 | 0.123 | 3.83 | 5.38
PRADC1 (GeneID 84279) | 2 | -0.743 | -2.26 | 2.79
PRADC1 (GeneID 84279) | 3 | 0.91 | 9.37 | 5.25
PPP1R3E (GeneID 90673) | 1 | 4.66 | 35.8 | 14.3
PPP1R3E (GeneID 90673) | 2 | -1.36 | -6.63 | 1.27
PPP1R3E (GeneID 90673) | 3 | 1.37 | 12.6 | 6.94
NT5M (GeneID 56953) | 1 | 0.847 | 8.93 | 7.87
NT5M (GeneID 56953) | 2 | 0.249 | 4.72 | 6.72
NT5M (GeneID 56953) | 3 | -0.319 | 0.725 | 3.26
